Source: the supplement of paper PMC4604168 (melanoma cell lines)
This is one part of the list. Repeats are few or missing, and single values can be far off.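 The apoptosis fraction was the count of cleaved-PARP antibody-stained nuclei relative to all DNA-stained nuclei, imaged in 1,536-well plates. Screening doses were set so most cells survived, and baseline and induced cleaved-PARP levels vary greatly across cell lines.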

What was measured:
Experiment in all cases: cleaved PARP positive nuclei fraction relative to DMSO control; melanoma cells; higher = more apoptosis
Conditions in all cases: library dose: low library concentration; 72 h
WM115 = tested on: WM115
WM1716 = tested on: WM1716
WM1745 = tested on: WM1745
WM3526 = tested on: WM3526
WM3619 = tested on: WM3619
WM451Lu = tested on: WM451Lu

Row | Structure (SMILES) | cleaved PARP positive nuclei fraction (WM115) [%] | cleaved PARP positive nuclei fraction (WM1716) [%] | cleaved PARP positive nuclei fraction (WM1745) [%] | cleaved PARP positive nuclei fraction (WM3526) [%] | cleaved PARP positive nuclei fraction (WM3619) [%] | cleaved PARP positive nuclei fraction (WM451Lu) [%]
1 | N#CC[C@H](C1CCCC1)n1cc(-c2ncnc3[nH]ccc23)cn1 [ruxolitinib] + CC(C)CCN1c2nc(Nc3cc(F)c(O)c(F)c3)ncc2N(C)C(=O)C1C [BID1870] (first compound 1 µM, partner dose 0.2 µM) | 48.8 | 95.6 | 81.1 | 71.5 | 103 | 87.6
2 | CCCCCCCCCCCCCCCCCCOP(=O)([O-])OC1CC[N+](C)(C)CC1 [Perifosine] + c1cc(-c2cnn3cc(-c4ccc(OCCN5CCCCC5)cc4)cnc23)ccn1 [Dorsomorphin] (first compound 0.4 µM, partner dose 0.4 µM) | 121 | 208 | 222 | 117 | 1120 | 62.7
3 | O=C(Nc1cc(C(F)(F)F)cc(C(F)(F)F)c1)c1cc(Cl)ccc1O + CCN(CC)CCNC(=O)c1c(C)[nH]c(/C=C2\C(=O)Nc3ccc(F)cc32)c1C [sunitinib] (first compound 0.016 µM, partner dose 0.4 µM) | 37.4 | 149 | 102 | 117 | 91.1 | 192
4 | O=c1[nH]nc(Sc2ncc([N+](=O)[O-])s2)n1-c1ccc2c(c1)OCCO2 + O=C(O)c1ccc2c(c1)nc(Nc1cccc(Cl)c1)c1ccncc12 [CX4945] (first compound 0.2 µM, partner dose 0.4 µM) | 30.2 | 154 | 98.5 | 72.7 | 93.3 | 258
5 | COc1cc([C@@H]2c3cc4c(cc3[C@@H](O[C@@H]3O[C@@H]5CO[C@@H](C)O[C@H]5[C@H](O)[C@H]3O)[C@H]3COC(=O)[C@H]23)OCO4)cc(OC)c1O [etoposide] + Nc1cccc2c1CN(C1CCC(=O)NC1=O)C2=O [lenalidomide] (first compound 0.02 µM, partner dose 1 µM) | 95.2 | 45.7 | 115 | 98.1 | 134 | 98.2
6 | N#CC[C@H](C1CCCC1)n1cc(-c2ncnc3[nH]ccc23)cn1 [ruxolitinib] + CC[C@]1(O)C[C@H]2CN(CCc3c([nH]c4ccccc34)[C@@](C(=O)OC)(c3cc4c(cc3OC)N(C=O)[C@H]3[C@@](O)(C(=O)OC)[C@H](OC(C)=O)[C@]5(CC)C=CCN6CC[C@]43[C@@H]65)C2)C1 [vincristine] (first compound 1 µM, partner dose 0.0001 µM) | 211 | 511 | 99.2 | 44.9 | 144 | 445
7 | CC[C@]1(O)C[C@H]2CN(CCc3c([nH]c4ccccc34)[C@@](C(=O)OC)(c3cc4c(cc3OC)N(C=O)[C@H]3[C@@](O)(C(=O)OC)[C@H](OC(C)=O)[C@]5(CC)C=CCN6CC[C@]43[C@@H]65)C2)C1 [vincristine] + Nc1cccc2c1CN(C1CCC(=O)NC1=O)C2=O [lenalidomide] (first compound 0.0001 µM, partner dose 1 µM) | 718 | 107 | 113 | 114 | 159 | 138
8 | O=C(Nc1cc(C(F)(F)F)cc(C(F)(F)F)c1)c1cc(Cl)ccc1O + CS(=O)(=O)CCNCc1ccc(-c2ccc3ncnc(Nc4ccc(OCc5cccc(F)c5)c(Cl)c4)c3c2)o1 [lapatinib] (first compound 0.016 µM, partner dose 0.8 µM) | 150 | 71.5 | 108 | 111 | 185 | 225
9 | COc1cc([C@@H]2c3cc4c(cc3[C@@H](O[C@@H]3O[C@@H]5CO[C@@H](C)O[C@H]5[C@H](O)[C@H]3O)[C@H]3COC(=O)[C@H]23)OCO4)cc(OC)c1O [etoposide] + COc1cc(N2CCC(N3CCN(C)CC3)CC2)ccc1Nc1ncc(Cl)c(Nc2ccccc2S(=O)(=O)C(C)C)n1 [NVP-TAE684] (first compound 0.02 µM, partner dose 0.08 µM) | 90.4 | 129 | 108 | 41.6 | 85.1 | 64.5
10 | O=C(Nc1cc(C(F)(F)F)cc(C(F)(F)F)c1)c1cc(Cl)ccc1O + Cn1cncc1[C@@](N)(c1ccc(Cl)cc1)c1ccc2c(c1)c(-c1cccc(Cl)c1)cc(=O)n2C [tipifarnib] (first compound 0.016 µM, partner dose 0.01 µM) | 158 | 121 | 95.5 | 63.5 | 102 | 805
11 | Cc1cc(Nc2cc(N3CCN(C)CC3)nc(Sc3ccc(NC(=O)C4CC4)cc3)n2)n[nH]1 [Tozasertib] + Cn1cc(/C=C2\C(=O)Nc3cccnc32)c2ccccc21 [GW441756] (first compound 0.006 µM, partner dose 0.4 µM) | 142 | 37.7 | 266 | 77.1 | 102 | 296
12 | Cc1ccc(Nc2nccc(N(C)c3ccc4c(C)n(C)nc4c3)n2)cc1S(N)(=O)=O [Pazopanib] + O=S(=O)(c1ccccc1)N(CC(F)(F)F)c1ccc(C(O)(C(F)(F)F)C(F)(F)F)cc1 [T0901317] (first compound 0.4 µM, partner dose 1.4 µM) | 41.5 | 293 | 104 | 145 | 107 | 132
13 | O=c1[nH]nc(Sc2ncc([N+](=O)[O-])s2)n1-c1ccc2c(c1)OCCO2 + COc1cc(N2CCC(N3CCN(C)CC3)CC2)ccc1Nc1ncc(Cl)c(Nc2ccccc2S(=O)(=O)C(C)C)n1 [NVP-TAE684] (first compound 0.2 µM, partner dose 0.08 µM) | 80.5 | 99.2 | 120 | 68.7 | 122 | 73.5
14 | O=C(/C=C/c1cccnc1)NCCCCC1CCN(C(=O)c2ccccc2)CC1 + NC(=O)c1ccc(N(C(N)=O)c2c(F)cccc2F)nc1-c1ccc(F)cc1F [VX702] (first compound 0.01 µM, partner dose 0.4 µM) | 234 | 41.6 | 101 | 87.1 | 127 | 107
15 | CC[C@]1(O)C[C@H]2CN(CCc3c([nH]c4ccccc34)[C@@](C(=O)OC)(c3cc4c(cc3OC)N(C=O)[C@H]3[C@@](O)(C(=O)OC)[C@H](OC(C)=O)[C@]5(CC)C=CCN6CC[C@]43[C@@H]65)C2)C1 [vincristine] + CC(C)(C)c1cnc(CSc2cnc(NC(=O)C3CCNCC3)s2)o1 [SNS-032] (first compound 0.0001 µM, partner dose 0.01 µM) | 1010 | 1070 | 110 | 30.8 | 233 | 261
16 | COc1cc([C@@H]2c3cc4c(cc3[C@@H](O[C@@H]3O[C@@H]5CO[C@@H](C)O[C@H]5[C@H](O)[C@H]3O)[C@H]3COC(=O)[C@H]23)OCO4)cc(OC)c1O [etoposide] + Oc1cc(-c2nc(-c3ccccc3)[nH]c2-c2ccncc2)ccc1Cl [L779450] (first compound 0.02 µM, partner dose 0.2 µM) | 275 | 108 | 99.3 | 112 | 95.9 | 33.4
17 | O=c1[nH]nc(Sc2ncc([N+](=O)[O-])s2)n1-c1ccc2c(c1)OCCO2 + N#Cc1c(O)c2c(-c3ccc(-c4ccccc4O)cc3)csc2[nH]c1=O [A769662] (first compound 0.2 µM, partner dose 2 µM) | 53.8 | 37 | 93.2 | 82.7 | 91 | 60
18 | O=c1[nH]nc(Sc2ncc([N+](=O)[O-])s2)n1-c1ccc2c(c1)OCCO2 + c1cc(-c2cnn3cc(-c4ccc(OCCN5CCCCC5)cc4)cnc23)ccn1 [Dorsomorphin] (first compound 0.2 µM, partner dose 0.4 µM) | 108 | 20.6 | 105 | 322 | 85.1 | 33.8
19 | Cc1cn(-c2cc(NC(=O)c3ccc(C)c(Nc4nccc(-c5cccnc5)n4)c3)cc(C(F)(F)F)c2)cn1 [nilotinib] + c1cc(-c2cnn3cc(-c4ccc(OCCN5CCCCC5)cc4)cnc23)ccn1 [Dorsomorphin] (first compound 0.2 µM, partner dose 0.4 µM) | 56.1 | 45.5 | 113 | 70.8 | 79.7 | 136
20 | COc1cc([C@@H]2c3cc4c(cc3[C@@H](O[C@@H]3O[C@@H]5CO[C@@H](C)O[C@H]5[C@H](O)[C@H]3O)[C@H]3COC(=O)[C@H]23)OCO4)cc(OC)c1O [etoposide] + Cc1ccc(Nc2nccc(N(C)c3ccc4c(C)n(C)nc4c3)n2)cc1S(N)(=O)=O [Pazopanib] (first compound 0.02 µM, partner dose 0.4 µM) | 55.8 | 39.1 | 98.6 | 196 | 125 | 87.2
21 | CCCCCCCCCCCCCCCCCCOP(=O)([O-])OC1CC[N+](C)(C)CC1 [Perifosine] + OCc1c[nH]c2ccccc12 [Indole-3-carbinol] (first compound 0.4 µM, partner dose 0.8 µM) | 81.2 | 91.6 | 101 | 98.8 | 161 | 56.8
22 | Cc1cn(-c2cc(NC(=O)c3ccc(C)c(Nc4nccc(-c5cccnc5)n4)c3)cc(C(F)(F)F)c2)cn1 [nilotinib] + Nc1cccc2c1CN(C1CCC(=O)NC1=O)C2=O [lenalidomide] (first compound 0.2 µM, partner dose 1 µM) | 129 | 38 | 114 | 81.1 | 81.5 | 90.3

Laid out differently: results already given.
Row,Structure (SMILES),cleaved PARP positive nuclei fraction (WM115) [%],cleaved PARP positive nuclei fraction (WM1716) [%],cleaved PARP positive nuclei fraction (WM1745) [%],cleaved PARP positive nuclei fraction (WM3526) [%],cleaved PARP positive nuclei fraction (WM3619) [%],cleaved PARP positive nuclei fraction (WM451Lu) [%]
11,"Cc1cc(Nc2cc(N3CCN(C)CC3)nc(Sc3ccc(NC(=O)C4CC4)cc3)n2)n[nH]1 [Tozasertib] + Cn1cc(/C=C2\C(=O)Nc3cccnc32)c2ccccc21 [GW441756] (first compound 0.006 µM, partner dose 0.4 µM)",142,37.7,266,77.1,102,296
18,"O=c1[nH]nc(Sc2ncc([N+](=O)[O-])s2)n1-c1ccc2c(c1)OCCO2 + c1cc(-c2cnn3cc(-c4ccc(OCCN5CCCCC5)cc4)cnc23)ccn1 [Dorsomorphin] (first compound 0.2 µM, partner dose 0.4 µM)",108,20.6,105,322,85.1,33.8
